These are yes or no findings as the source states them, for the method shown. Some binding calls cover weakened binding; strength is not graded here. For some of these results: Sequences can lack the tags named with a protein.
Columns and labels:
[1] = target: MBP-RGS4Δ51N, wild type, biotinylated (UniProt P49799); test: FCPIA (flow cytometry protein interaction assay, Luminex beads); dose response curves for 5nd with different RGS proteins on beads and labeled Gαo; curves constrained to 100% and 0%; both purified
[2] = target: T1, RGS16 full length, MBP fusion (human) (UniProt O15492); test: as above
T1 sequence: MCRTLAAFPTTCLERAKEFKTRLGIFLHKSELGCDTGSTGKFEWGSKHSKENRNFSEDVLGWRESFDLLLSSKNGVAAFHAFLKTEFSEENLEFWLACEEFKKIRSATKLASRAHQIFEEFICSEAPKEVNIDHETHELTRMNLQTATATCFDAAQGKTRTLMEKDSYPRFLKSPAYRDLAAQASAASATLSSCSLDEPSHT

The chains behind the UniProt entries cited, without tags or fusion partners. Where a name states a change or a piece, a line headed by the entry shows the natural chain unless it says otherwise. A line that says so, or that is headed by a name, gives the form on record, which may keep a tag or linker. Residues count along the entry.
MBP-RGS4Δ51N, wild type, biotinylated (P49799, residues 52-205): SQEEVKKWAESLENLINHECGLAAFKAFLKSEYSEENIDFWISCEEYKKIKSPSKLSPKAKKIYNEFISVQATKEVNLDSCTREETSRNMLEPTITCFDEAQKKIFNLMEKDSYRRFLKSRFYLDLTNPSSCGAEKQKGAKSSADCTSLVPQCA
MBP-RGS4Δ51N C132A (P49799, form named): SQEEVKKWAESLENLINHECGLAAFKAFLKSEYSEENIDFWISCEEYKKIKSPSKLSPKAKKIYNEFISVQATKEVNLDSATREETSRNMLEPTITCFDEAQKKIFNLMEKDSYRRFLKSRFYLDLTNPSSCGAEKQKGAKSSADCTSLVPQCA
MBP-RGS4Δ51N C148A (P49799, form named): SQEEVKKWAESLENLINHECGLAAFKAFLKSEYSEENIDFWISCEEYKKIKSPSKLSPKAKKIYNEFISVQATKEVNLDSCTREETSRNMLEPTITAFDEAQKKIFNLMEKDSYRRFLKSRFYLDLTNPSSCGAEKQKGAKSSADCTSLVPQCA
MBP-RGS4Δ51N C71A (P49799, form named): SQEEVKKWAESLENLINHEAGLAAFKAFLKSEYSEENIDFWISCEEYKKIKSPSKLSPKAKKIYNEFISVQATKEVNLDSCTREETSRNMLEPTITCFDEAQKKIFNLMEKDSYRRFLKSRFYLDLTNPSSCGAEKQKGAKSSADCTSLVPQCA
MBP-RGS4Δ51N C95A (P49799, form named): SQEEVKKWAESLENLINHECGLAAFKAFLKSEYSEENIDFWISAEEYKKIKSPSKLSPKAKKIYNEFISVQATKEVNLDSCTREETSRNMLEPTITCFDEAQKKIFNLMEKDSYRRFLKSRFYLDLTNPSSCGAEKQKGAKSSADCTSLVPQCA
UniProt P59215: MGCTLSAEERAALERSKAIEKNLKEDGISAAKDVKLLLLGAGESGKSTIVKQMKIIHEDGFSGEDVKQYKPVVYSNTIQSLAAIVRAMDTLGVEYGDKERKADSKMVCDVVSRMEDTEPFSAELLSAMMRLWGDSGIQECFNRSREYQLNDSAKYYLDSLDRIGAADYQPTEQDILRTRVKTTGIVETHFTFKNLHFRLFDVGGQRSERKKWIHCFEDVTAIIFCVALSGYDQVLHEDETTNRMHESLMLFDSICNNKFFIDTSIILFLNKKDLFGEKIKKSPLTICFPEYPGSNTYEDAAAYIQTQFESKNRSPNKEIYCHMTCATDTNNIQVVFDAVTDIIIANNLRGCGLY

[3] = target: T2, RGS19ΔC11 (amino acids 1–209), MBP fusion (human) (UniProt P49795); test: as above
T2 sequence: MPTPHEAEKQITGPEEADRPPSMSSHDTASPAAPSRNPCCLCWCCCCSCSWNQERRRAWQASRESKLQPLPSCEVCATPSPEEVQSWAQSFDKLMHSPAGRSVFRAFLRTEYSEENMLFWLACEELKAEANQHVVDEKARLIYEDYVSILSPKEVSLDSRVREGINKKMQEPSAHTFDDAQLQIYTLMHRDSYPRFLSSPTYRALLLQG

[4] = target: T3, RGS7 RGS domain (aa: 305–453), MBP fusion (human) (UniProt P49802); test: as above
T3 sequence: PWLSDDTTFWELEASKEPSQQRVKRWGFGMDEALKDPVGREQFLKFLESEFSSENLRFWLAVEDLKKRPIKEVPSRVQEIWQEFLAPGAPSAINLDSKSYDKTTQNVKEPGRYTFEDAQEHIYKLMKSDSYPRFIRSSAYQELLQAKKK

[5] = target: T4, RGS8 full length, MBP fusion (human) (UniProt P57771); test: as above
T4 sequence (chain, biotin (sites not stated)): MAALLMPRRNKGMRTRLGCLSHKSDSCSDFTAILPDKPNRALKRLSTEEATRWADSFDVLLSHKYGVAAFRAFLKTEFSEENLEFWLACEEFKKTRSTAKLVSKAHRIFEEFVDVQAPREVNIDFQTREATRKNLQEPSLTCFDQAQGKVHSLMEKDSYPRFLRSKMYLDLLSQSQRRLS

[6] = target: MBP-RGS4Δ51N, wild type, biotinylated (UniProt P49799); test: FCPIA (flow cytometry protein interaction assay, Luminex beads); RGS-biotin on avidin beads treated with 5nd (100 μM) or 5nm (100 μM), not washed, then Gαo binding read (whether the 5nm samples were washed is not stated); both purified
[7] = target: T4, RGS8 full length, MBP fusion (human); test: as above
[8] = target: MBP-RGS4Δ51N C132A (UniProt P49799); test: FCPIA (flow cytometry protein interaction assay, Luminex beads); dose curves of 5nd on RGS4 cysteine mutants (5 nM, or 20 nM for the mutants with no Cys in the domain or the C-terminus) and labeled Gαo; curves constrained to 100% and 0%; both purified
[9] = target: MBP-RGS4Δ51N C148A (UniProt P49799); test: as above
[10] = target: MBP-RGS4Δ51N C71A (UniProt P49799); test: as above
[11] = target: MBP-RGS4Δ51N C95A (UniProt P49799); test: as above
[12] = target: MBP-RGS4Δ51N, wild type, biotinylated (UniProt P49799); test: as above
[13] = target: MBP-RGS4Δ51N, wild type, biotinylated (UniProt P49799); test: FCPIA (flow cytometry protein interaction assay, Luminex beads); competition at one peptide concentration (50 μM unless the cell says otherwise); 5 nM wild type RGS4-biotin on avidin beads, 25 nM Gαo-Alexa Fluor 532, with AMF (AlCl3, MgCl2, NaF and GDP); both purified

binding [1]: binds
binding [2]: binds
binding [3]: binds
binding [4]: binds
binding [5]: binds
binding [6]: binds
binding [7]: binds
binding [8]: binds
binding [9]: binds
binding [10]: binds
binding [11]: binds
binding [12]: binds
binding [13]: binds
Substance: Gαo, Alexa Fluor 532-labeled (from UniProt P59215 1-354)
